The assay addresses Xsox17 (Xenopus laevis). Kind of assay: co-IP; immunological co-precipitation, told only in the discussion with no data shown; no conditions given.

These are yes or no findings as the source states them, for the method shown. Binding seen in cells or lysates may run through a third protein.

B1: VegT (protein, UniProt P87377 1-455)
chain: MRNCCRECGLSAGHLEPEASSNCASDVKSSPDMDSVSSQDSLYLPNTVGASLEDQDLWSQFHQEGTEMIITKSGRRMFPQCKIRLFGLHPYAKYMLLVDFVPLDNFRYKWNKNQWEAAGKAEPHPPCRTYVHPDSPAPGAHWMKDPICFQKLKLTNNTLDQQGHIILHSMHRYKPRFHVVQSDDMYNSPWGLVQVFSFPETEFTSVTAYQNEKITKLKINHNPFAKGFREQERSHKRDDVLKILQQSPSKRQKRKKWEDSPEADISDFPKAICVKEESIMDPAGVYQNWVSDHEANQGLTPHSPESEGANQEQQVPTSSSNFYNKSHYRRSSQHLSSPFELGEPSSRRLTPDIATVPDSDPDSLAVFHVIPTQNSAPERTCSMNFSMEAPMKQPLRGAMYSPYGADQWLVPAQGQYRPVGYTAYPTDLSTQGAVAHPHSAMSDWSQYSLFPYSCW
Consider B1, for which the binding result is reported as “no binding”.

The values are drawn from PMC2098691, “Regulation of the Xenopus Xsox17α1 promoter by co-operating VegT and Sox17 sites”.
